{"source": "PubChem BioAssay AID248", "about": "(DTP/NCI, 2004)", "tested_on": "L1210 leukemia ip in BDF1 mice, survival T/C", "assay": "NCI In Vivo Anticancer Drug Screen. Data for tumor model L1210 Leukemia (intraperitoneal) in B6D2F1 (BDF1) mice", "conditions": "T/C endpoint: mean survival time, higher T/C = longer survival", "key": {"[1]": {"conditions": "dose: 0.5 mg/kg/injection, schedule: Q01DX010 (ip), vehicle: saline"}}, "note": "The list does not hold the whole screen: it is rich in T/C values a quarter to a half above the control, in often repeated tests (any T/C) and in doses without a T/C. Further doses and runs are listed elsewhere. T/C gives the treated animals as a percentage of the vehicle group. Some entries give survivors of the animals treated and no T/C: the source holds a T/C of zero for them, seemingly a mark for toxic or unscored doses. Some survivor counts are full or nearly so, which does not show that the dose was tolerated: survival well below the control is almost never listed, so the zero probably covers shortened survival too. Survivors were counted at the toxicity check, usually on the fifth day, unless a day is given; later deaths do not show. Schedules are NCI's codes, taken here to give the interval after Q, in days (D) or hours (H), and the number of doses after X. Some schedules carry Z or #; the key to these is not given. Where survival is the endpoint, the PubChem record calls one and a half times the control and up active, and a quarter to a half above the control has no call in these data; cut-offs in other NCI protocols can differ. Some T/C values are followed by the survivors on the day toxicity was checked, most often the fifth; without a count, all were alive then. Some entries hold several experiments; the values are given in rising order. Marks such as (2×) stand for listed records that agree."}
{"molecule": "CC[C@]1(O)C[C@H]2CN(CCc3c([nH]c4ccccc34)[C@@](C(=O)OC)(c3cc4c(cc3OC)N(C=O)[C@H]3[C@@](O)(C(=O)OC)[C@H](OC(C)=O)[C@]5(CC)C=CCN6CC[C@]43[C@@H]65)C2)C1", "values": [{"measurement": "T/C", "setting": "dose: 0.03 mg/kg/injection, schedule: Q01DX010 (ip), vehicle: saline", "result": "106 (2×), 108, 111 % of control"}, {"measurement": "T/C", "setting": "dose: 0.06 mg/kg/injection, schedule: Q01DX010 (ip), vehicle: saline", "result": "113, 115, 116, 120 % of control"}, {"measurement": "T/C", "setting": "dose: 0.1 mg/kg/injection, schedule: Q03HX032 (ip), vehicle: saline", "result": "126 % of control"}, {"measurement": "T/C", "setting": "dose: 0.1 mg/kg/injection, schedule: Q## X032 (ip), vehicle: saline", "result": "126 % of control"}, {"measurement": "T/C", "setting": "dose: 0.11 mg/kg/injection, schedule: Q01DX009 (ip), vehicle: saline", "result": "128 % of control"}, {"measurement": "T/C", "setting": "dose: 0.12 mg/kg/injection, schedule: Q01DX010 (ip), vehicle: saline", "result": "120, 130, 132, 134 % of control"}, {"measurement": "T/C", "setting": "dose: 0.15 mg/kg/injection, schedule: Q03HX032 (ip), vehicle: saline", "result": "126 % of control"}, {"measurement": "T/C", "setting": "dose: 0.15 mg/kg/injection, schedule: Q## X032 (ip), vehicle: saline", "result": "126 % of control"}, {"measurement": "T/C", "setting": "dose: 0.2 mg/kg/injection, schedule: Q01DX015 (ip), vehicle: saline", "result": "131 % of control"}, {"measurement": "T/C", "setting": "dose: 0.25 mg/kg/injection, schedule: Q01DX010 (ip), vehicle: saline", "result": "103, 113, 137, 138 % of control"}, {"measurement": "T/C", "setting": "dose: 0.25 mg/kg/injection, schedule: Q01DX Z (ip), vehicle: saline", "result": "139 % of control"}, {"measurement": "T/C", "setting": "dose: 0.29 mg/kg/injection, schedule: Q04DX002 (ip), vehicle: saline", "result": "106, 119 (2×), 123 % of control"}, {"measurement": "T/C", "setting": "dose: 0.3 mg/kg/injection, schedule: Q01DX009 (ip), vehicle: saline", "result": "145 % of control"}, {"measurement": "T/C", "setting": "dose: 0.39 mg/kg/injection, schedule: Q04DX003 (ip), vehicle: saline, evaluated on day 30", "result": "127 % of control"}, {"measurement": "T/C", "setting": "dose: 0.39 mg/kg/injection, schedule: Q04DX003 (ip), vehicle: saline, evaluated on day 45", "result": "113, 115, 120, 123 % of control"}, {"measurement": "T/C", "setting": "dose: 0.4 mg/kg/injection, schedule: Q01DX015 (ip), vehicle: saline", "result": "147 % of control"}, {"measurement": "T/C", "setting": "[1]", "result": "98 and 105 % of control"}, {"measurement": "survivor count", "setting": "[1]", "result": "6 of 6"}, {"measurement": "T/C", "setting": "dose: 0.5 mg/kg/injection, schedule: Q01DX Z (ip), vehicle: water", "result": "127 % of control"}, {"measurement": "T/C", "setting": "dose: 0.58 mg/kg/injection, schedule: Q04DX002 (ip), vehicle: saline", "result": "106, 112, 115, 122 % of control"}, {"measurement": "T/C", "setting": "dose: 0.65 mg/kg/injection, schedule: Q04DX003 (ip), vehicle: saline, evaluated on day 30", "result": "136 % of control"}, {"measurement": "T/C", "setting": "dose: 0.65 mg/kg/injection, schedule: Q04DX003 (ip), vehicle: saline, evaluated on day 45", "result": "109, 124, 131, 148 % of control"}, {"measurement": "survivor count", "setting": "dose: 0.8 mg/kg/injection, schedule: Q01DX005 (ip), vehicle: saline", "result": "5 of 6"}, {"measurement": "T/C", "setting": "dose: 1.0 mg/kg/injection, schedule: Q01DX001 (ip), vehicle: saline", "result": "131 % of control"}, {"measurement": "survivor count", "setting": "dose: 1.0 mg/kg/injection, schedule: Q01DX Z (ip), vehicle: saline", "result": "5 of 7"}, {"measurement": "T/C", "setting": "dose: 1.0 mg/kg/injection, schedule: Q04DX004 (ip), vehicle: saline", "result": "138 % of control"}, {"measurement": "T/C", "setting": "dose: 1.08 mg/kg/injection, schedule: Q04DX003 (ip), vehicle: saline, evaluated on day 30", "result": "169 % of control"}, {"measurement": "T/C", "setting": "dose: 1.08 mg/kg/injection, schedule: Q04DX003 (ip), vehicle: saline, evaluated on day 45", "result": "113, 127, 151, 163 % of control"}, {"measurement": "T/C", "setting": "dose: 1.15 mg/kg/injection, schedule: Q04DX002 (ip), vehicle: saline", "result": "129 % of control"}, {"measurement": "T/C", "setting": "dose: 1.5 mg/kg/injection, schedule: Q04DX004 (ip), vehicle: saline", "result": "127, 131, 137 % of control"}, {"measurement": "survivor count", "setting": "dose: 1.56 mg/kg/injection, schedule: Q04DX002 (ip), vehicle: saline", "result": "3 of 3"}, {"measurement": "survivor count", "setting": "dose: 1.6 mg/kg/injection, schedule: Q01DX005 (ip), vehicle: saline", "result": "0 of 6"}, {"measurement": "survivor count", "setting": "dose: 1.6 mg/kg/injection, schedule: Q01DX005 (iv), vehicle: saline", "result": "2 of 6"}, {"measurement": "T/C", "setting": "dose: 1.8 mg/kg/injection, schedule: Q01DX001 (ip), vehicle: saline", "result": "129 % of control"}, {"measurement": "T/C", "setting": "dose: 1.8 mg/kg/injection, schedule: Q04DX003 (ip), vehicle: saline, evaluated on day 30", "result": "121 % of control"}, {"measurement": "T/C", "setting": "dose: 1.8 mg/kg/injection, schedule: Q04DX003 (ip), vehicle: saline, evaluated on day 45", "result": "112, 113, 121, 122 % of control"}, {"measurement": "T/C", "setting": "dose: 2.3 mg/kg/injection, schedule: Q04DX002 (ip), vehicle: saline", "result": "110, 112 [2 of 2 alive], 122, 128 % of control"}, {"measurement": "T/C", "setting": "dose: 3.0 mg/kg/injection, schedule: Q01DX001 (ip), vehicle: water", "result": "128 % of control"}, {"measurement": "T/C", "setting": "dose: 3.0 mg/kg/injection, schedule: Q04DX004 (ip), vehicle: saline", "result": "132 % of control"}, {"measurement": "survivor count", "setting": "dose: 3.13 mg/kg/injection, schedule: Q04DX002 (ip), vehicle: saline", "result": "3 of 3"}, {"measurement": "survivor count", "setting": "dose: 6.25 mg/kg/injection, schedule: Q04DX002 (ip), vehicle: saline", "result": "3 of 3"}, {"measurement": "survivor count", "setting": "dose: 6.5 mg/kg/injection, schedule: Q01DX001 (ip), vehicle: saline", "result": "9 of 10"}, {"measurement": "survivor count", "setting": "dose: 8.0 mg/kg/injection, schedule: Q01DX001 (ip), vehicle: saline", "result": "10 of 10"}, {"measurement": "survivor count", "setting": "dose: 12.5 mg/kg/injection, schedule: Q04DX002 (ip), vehicle: saline", "result": "3 of 3"}, {"measurement": "survivor count", "setting": "dose: 25.0 mg/kg/injection, schedule: Q04DX002 (ip), vehicle: saline", "result": "1 of 3"}, {"measurement": "survivor count", "setting": "dose: 50.0 mg/kg/injection, schedule: Q04DX002 (ip), vehicle: saline", "result": "2 of 3"}, {"measurement": "survivor count", "setting": "dose: 100.0 mg/kg/injection, schedule: Q04DX002 (ip), vehicle: saline", "result": "0 of 3"}, {"measurement": "survivor count", "setting": "dose: 200.0 mg/kg/injection, schedule: Q04DX002 (ip), vehicle: saline", "result": "0 of 3"}, {"measurement": "survivor count", "setting": "dose: 400.0 mg/kg/injection, schedule: Q04DX002 (ip), vehicle: saline", "result": "0 of 3"}]}
